Results reported in article PMC8213057, “Targeting ALK2: An Open Science Approach to Developing Therapeutics for the Treatment of Diffuse Intrinsic Pontine Glioma” (Journal of Medicinal Chemistry, 2020).

Chains of the proteins cited; added tags and fusions are not shown. Lines headed by an entry give the natural chain unless they say otherwise; changes in a name come on top. Residues count along the entry.
UniProt P46734: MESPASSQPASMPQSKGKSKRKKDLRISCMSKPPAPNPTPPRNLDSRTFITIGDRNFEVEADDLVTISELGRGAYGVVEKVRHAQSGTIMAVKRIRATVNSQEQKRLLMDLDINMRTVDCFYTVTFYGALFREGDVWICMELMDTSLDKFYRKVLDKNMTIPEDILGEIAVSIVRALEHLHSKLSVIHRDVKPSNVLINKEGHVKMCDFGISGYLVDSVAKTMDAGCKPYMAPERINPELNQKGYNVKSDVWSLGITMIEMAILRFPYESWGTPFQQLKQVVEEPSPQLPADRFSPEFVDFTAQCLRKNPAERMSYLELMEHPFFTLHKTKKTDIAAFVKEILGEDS
UniProt P42680: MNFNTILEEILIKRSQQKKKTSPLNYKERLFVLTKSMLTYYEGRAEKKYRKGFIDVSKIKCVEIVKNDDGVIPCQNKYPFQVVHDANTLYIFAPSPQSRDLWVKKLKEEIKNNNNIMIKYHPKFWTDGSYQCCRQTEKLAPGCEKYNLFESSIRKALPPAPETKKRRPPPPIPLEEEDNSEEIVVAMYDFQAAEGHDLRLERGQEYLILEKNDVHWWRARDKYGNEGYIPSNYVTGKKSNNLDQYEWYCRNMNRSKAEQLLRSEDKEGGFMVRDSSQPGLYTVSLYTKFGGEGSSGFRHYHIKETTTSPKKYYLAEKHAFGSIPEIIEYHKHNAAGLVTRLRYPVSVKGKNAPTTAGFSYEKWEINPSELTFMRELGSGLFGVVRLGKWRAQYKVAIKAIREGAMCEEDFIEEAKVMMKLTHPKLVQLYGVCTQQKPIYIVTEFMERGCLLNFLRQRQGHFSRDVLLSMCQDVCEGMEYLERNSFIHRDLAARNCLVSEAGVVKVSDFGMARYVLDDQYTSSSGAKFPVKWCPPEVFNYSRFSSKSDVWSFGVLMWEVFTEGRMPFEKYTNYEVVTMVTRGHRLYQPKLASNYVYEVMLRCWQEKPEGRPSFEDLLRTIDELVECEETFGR
UniProt Q9H4B4: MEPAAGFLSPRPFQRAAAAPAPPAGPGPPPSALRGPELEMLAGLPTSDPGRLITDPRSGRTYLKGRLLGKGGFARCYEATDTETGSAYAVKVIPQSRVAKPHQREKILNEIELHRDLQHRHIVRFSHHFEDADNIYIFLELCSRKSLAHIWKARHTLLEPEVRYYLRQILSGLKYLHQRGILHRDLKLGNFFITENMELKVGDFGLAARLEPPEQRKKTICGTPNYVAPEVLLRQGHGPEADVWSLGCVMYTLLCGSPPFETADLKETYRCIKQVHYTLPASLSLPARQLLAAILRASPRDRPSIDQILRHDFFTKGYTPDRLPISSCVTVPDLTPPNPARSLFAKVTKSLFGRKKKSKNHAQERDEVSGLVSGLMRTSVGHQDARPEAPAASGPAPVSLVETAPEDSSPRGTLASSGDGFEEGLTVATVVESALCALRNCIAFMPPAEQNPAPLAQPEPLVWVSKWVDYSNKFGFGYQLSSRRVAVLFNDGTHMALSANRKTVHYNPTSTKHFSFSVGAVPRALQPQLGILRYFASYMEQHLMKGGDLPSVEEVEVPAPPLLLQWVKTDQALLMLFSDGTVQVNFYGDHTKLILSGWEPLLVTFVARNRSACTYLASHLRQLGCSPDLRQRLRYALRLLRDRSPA
UniProt O14733: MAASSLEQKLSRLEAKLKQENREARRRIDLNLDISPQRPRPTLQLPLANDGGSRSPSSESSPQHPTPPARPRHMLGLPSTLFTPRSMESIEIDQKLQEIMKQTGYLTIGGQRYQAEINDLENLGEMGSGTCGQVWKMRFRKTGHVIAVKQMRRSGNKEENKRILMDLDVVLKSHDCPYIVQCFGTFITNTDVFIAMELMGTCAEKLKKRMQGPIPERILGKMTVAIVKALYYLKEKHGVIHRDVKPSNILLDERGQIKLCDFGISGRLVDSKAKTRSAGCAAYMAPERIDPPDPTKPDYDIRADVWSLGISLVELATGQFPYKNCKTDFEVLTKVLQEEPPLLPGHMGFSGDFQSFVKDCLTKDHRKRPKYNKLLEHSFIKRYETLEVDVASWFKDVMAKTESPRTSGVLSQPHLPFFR
UniProt P22607, 23-806: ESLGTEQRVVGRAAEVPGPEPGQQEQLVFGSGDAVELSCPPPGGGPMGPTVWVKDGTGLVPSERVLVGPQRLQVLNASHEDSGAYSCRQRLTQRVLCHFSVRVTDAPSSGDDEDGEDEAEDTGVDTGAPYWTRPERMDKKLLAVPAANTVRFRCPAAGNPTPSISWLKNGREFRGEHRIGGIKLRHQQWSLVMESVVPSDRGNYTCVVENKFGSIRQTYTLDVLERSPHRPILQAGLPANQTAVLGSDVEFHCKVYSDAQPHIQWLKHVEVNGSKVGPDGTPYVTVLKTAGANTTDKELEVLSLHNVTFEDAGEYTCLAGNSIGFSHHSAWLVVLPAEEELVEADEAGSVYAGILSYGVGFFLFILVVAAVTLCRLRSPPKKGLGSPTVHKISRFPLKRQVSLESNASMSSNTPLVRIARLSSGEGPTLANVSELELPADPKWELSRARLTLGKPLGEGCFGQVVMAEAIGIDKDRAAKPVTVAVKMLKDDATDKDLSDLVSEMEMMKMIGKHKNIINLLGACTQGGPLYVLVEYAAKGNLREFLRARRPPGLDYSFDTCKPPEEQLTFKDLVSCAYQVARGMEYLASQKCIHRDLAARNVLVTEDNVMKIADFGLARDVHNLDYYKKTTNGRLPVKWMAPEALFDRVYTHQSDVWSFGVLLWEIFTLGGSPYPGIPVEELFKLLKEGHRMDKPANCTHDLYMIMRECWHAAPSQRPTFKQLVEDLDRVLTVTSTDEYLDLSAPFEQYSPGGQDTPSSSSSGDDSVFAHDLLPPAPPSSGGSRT
UniProt P29317, 24-976: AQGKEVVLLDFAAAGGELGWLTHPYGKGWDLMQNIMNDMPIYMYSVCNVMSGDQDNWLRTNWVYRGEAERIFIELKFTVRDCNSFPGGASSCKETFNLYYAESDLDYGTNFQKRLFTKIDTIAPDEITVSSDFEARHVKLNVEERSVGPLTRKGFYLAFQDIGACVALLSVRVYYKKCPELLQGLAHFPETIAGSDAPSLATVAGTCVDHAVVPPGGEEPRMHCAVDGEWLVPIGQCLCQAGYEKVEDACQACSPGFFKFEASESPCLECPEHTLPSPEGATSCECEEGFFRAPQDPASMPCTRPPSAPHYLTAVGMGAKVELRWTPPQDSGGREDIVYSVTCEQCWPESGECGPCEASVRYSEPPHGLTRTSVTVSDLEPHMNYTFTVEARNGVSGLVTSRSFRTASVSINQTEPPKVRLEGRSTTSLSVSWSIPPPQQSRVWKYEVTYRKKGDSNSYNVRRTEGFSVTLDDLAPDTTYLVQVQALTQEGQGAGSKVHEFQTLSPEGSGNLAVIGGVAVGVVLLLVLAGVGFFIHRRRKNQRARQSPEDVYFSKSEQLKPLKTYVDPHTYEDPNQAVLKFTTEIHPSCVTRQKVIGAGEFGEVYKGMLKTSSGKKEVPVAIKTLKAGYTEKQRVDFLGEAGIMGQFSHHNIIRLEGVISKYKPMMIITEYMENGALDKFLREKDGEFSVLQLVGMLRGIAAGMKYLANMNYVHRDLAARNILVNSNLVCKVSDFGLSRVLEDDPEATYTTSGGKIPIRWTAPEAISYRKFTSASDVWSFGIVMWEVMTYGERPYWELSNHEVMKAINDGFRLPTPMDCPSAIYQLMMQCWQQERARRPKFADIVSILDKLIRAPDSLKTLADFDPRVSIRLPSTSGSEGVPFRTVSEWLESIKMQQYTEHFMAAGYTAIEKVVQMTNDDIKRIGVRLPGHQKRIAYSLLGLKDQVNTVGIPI
UniProt P21709, 26-976: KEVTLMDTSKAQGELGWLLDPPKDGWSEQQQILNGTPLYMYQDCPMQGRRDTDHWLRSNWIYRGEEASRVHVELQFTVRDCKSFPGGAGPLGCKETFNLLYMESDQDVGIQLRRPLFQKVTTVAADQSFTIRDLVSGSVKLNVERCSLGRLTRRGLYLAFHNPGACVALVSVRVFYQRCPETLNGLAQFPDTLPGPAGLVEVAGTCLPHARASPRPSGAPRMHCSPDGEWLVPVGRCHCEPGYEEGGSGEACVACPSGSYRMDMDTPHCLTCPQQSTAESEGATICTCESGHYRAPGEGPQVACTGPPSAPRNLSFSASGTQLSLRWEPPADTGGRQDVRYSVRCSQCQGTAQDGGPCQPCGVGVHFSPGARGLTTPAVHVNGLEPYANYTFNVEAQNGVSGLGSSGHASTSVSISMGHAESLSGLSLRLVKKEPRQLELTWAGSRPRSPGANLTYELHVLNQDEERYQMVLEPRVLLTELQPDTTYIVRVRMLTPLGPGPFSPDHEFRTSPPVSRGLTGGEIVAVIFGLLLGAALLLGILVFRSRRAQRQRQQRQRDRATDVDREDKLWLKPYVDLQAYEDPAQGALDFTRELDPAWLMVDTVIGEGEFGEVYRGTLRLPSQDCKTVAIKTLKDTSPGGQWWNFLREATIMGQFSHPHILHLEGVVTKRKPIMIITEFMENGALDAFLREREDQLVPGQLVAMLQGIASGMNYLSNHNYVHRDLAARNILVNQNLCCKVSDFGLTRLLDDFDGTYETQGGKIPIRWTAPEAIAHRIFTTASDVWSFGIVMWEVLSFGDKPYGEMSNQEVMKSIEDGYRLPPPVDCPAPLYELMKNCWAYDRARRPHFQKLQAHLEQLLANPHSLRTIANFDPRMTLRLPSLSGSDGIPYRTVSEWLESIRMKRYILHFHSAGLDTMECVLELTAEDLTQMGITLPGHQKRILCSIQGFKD
UniProt Q15208: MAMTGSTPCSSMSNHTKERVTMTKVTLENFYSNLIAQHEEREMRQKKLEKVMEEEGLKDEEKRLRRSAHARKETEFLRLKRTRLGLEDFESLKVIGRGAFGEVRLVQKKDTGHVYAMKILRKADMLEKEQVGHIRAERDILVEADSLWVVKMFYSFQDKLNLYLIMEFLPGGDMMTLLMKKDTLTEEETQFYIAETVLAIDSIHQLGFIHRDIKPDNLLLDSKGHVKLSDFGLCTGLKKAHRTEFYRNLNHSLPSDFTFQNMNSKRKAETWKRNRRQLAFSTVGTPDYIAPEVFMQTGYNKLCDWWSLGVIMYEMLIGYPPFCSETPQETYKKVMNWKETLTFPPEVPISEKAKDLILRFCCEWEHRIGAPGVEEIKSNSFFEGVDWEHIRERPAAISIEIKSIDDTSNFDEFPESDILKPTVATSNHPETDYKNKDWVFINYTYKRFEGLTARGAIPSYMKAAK
UniProt P80192: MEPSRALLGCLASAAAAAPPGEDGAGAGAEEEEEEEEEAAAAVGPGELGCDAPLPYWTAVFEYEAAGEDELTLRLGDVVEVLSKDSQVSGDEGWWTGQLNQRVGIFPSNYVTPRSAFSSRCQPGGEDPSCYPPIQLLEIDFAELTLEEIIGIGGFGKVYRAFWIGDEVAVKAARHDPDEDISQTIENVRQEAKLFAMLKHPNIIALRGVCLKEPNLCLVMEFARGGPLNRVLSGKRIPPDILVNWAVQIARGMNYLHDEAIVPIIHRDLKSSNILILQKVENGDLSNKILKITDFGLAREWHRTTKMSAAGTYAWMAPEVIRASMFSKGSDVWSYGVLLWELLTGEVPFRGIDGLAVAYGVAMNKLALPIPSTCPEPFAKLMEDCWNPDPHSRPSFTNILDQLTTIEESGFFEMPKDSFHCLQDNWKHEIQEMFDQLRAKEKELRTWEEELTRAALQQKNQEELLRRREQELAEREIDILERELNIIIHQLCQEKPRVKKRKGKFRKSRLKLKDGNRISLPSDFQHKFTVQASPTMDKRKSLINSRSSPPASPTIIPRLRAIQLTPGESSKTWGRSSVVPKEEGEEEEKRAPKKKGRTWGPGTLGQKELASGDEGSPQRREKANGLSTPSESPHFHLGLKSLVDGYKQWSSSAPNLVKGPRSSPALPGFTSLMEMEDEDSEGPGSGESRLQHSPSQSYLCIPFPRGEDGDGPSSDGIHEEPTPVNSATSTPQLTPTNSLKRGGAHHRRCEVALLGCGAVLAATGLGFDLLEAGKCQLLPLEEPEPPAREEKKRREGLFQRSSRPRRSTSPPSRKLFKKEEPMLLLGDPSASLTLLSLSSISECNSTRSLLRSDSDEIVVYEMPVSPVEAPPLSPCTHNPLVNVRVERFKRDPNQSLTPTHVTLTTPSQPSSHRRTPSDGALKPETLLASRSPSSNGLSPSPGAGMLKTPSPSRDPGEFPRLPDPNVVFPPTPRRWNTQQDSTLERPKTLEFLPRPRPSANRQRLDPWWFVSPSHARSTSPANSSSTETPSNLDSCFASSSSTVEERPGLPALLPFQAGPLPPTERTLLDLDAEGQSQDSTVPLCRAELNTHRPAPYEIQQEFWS

Columns and labels:
RIPK4 = RIPK4 (Homo sapiens, UniProt P57078); details: 1 μM; Run 1, Run 2
TYK2 = TYK2 (Homo sapiens, UniProt P29597); assay: biochemical; details: read-out: % enzyme activity, 1 μM; Run 1, Run 2
MEK3 = MEK3 (Homo sapiens, UniProt P46734); assay: biochemical; details: read-out: % enzyme activity, 1 μM; Run 1, Run 2
FGFR1 = FGFR1 (Homo sapiens, UniProt P11362); details: 1 μM; Run 1, Run 2
SNRK = SNRK (Homo sapiens, UniProt Q9NRH2); details: 1 μM; Run 1, Run 2
MAK = MAK (Homo sapiens, UniProt P20794); details: 1 μM; Run 1, Run 2
CDK8/cyclin C = CDK8/cyclin C (Homo sapiens, UniProt P49336); assay: biochemical; details: read-out: % enzyme activity, 1 μM; Run 1, Run 2
PKG2/PRKG2 = PKG2/PRKG2 (Homo sapiens, UniProt Q13237); details: 1 μM; Run 1, Run 2
TEC = TEC (Homo sapiens, UniProt P42680); assay: biochemical; details: read-out: % enzyme activity, 1 μM; Run 1, Run 2
PLK3 = PLK3 (Homo sapiens, UniProt Q9H4B4); details: 1 μM; Run 1, Run 2
LCK2/ICK = LCK2/ICK (Homo sapiens, UniProt Q9UPZ9); details: 1 μM; Run 1, Run 2
CHK1 = CHK1 (Homo sapiens, UniProt O14757); details: 1 μM; Run 1, Run 2
NEK2 = NEK2 (Homo sapiens, UniProt P51955); details: 1 μM; Run 1, Run 2
DYRK3 = DYRK3 (Homo sapiens, UniProt O43781); assay: biochemical; details: read-out: % enzyme activity, 1 μM; Run 1, Run 2
RSK3 = RSK3 (Homo sapiens, UniProt Q15349); assay: biochemical; details: read-out: % enzyme activity, 1 μM; Run 1, Run 2
MKK7 = MKK7 (Homo sapiens, UniProt O14733); assay: biochemical; details: read-out: % enzyme activity, 1 μM; Run 1, Run 2
MEKK1 = MEKK1 (Homo sapiens, UniProt Q13233); details: 1 μM; Run 1, Run 2
ERN1/IRE1 = ERN1/IRE1 (Homo sapiens, UniProt O75460); assay: biochemical; details: read-out: % enzyme activity, 1 μM; Run 1, Run 2
PIM3 = PIM3 (Homo sapiens, UniProt Q86V86); details: 1 μM; Run 1, Run 2
LIMK2 = LIMK2 (Homo sapiens, UniProt P53671); details: 1 μM; Run 1, Run 2
BTK = BTK (Homo sapiens, UniProt Q06187); details: 1 μM; Run 1, Run 2
PKN2/PRK2 = PKN2/PRK2 (Homo sapiens, UniProt Q16513); details: 1 μM; Run 1, Run 2
DCAMKL1 = DCAMKL1 (Homo sapiens, UniProt O15075); assay: biochemical; details: read-out: % enzyme activity, 1 μM; Run 1, Run 2
MYO3A = MYO3A (Homo sapiens, UniProt Q8NEV4); assay: biochemical; details: read-out: % enzyme activity, 1 μM; Run 1, Run 2
CDK4/cyclin D1 = CDK4/cyclin D1 (Homo sapiens, UniProt P11802); assay: biochemical; details: read-out: % enzyme activity, 1 μM; Run 1, Run 2
CK1g2 = CK1g2 (Homo sapiens, UniProt P78368); details: 1 μM; Run 1, Run 2
CK2a = CK2a (Homo sapiens, UniProt P68400); details: 1 μM; Run 1, Run 2
FGFR3 = FGFR3 (Homo sapiens, UniProt P22607); assay: biochemical; details: read-out: % enzyme activity, 1 μM; Run 1, Run 2
PKCg = PKCg (Homo sapiens, UniProt P05129); assay: biochemical; details: read-out: % enzyme activity, 1 μM; Run 1, Run 2
EPHA2 = EPHA2 (Homo sapiens, UniProt P29317); assay: biochemical; details: read-out: % enzyme activity, 1 μM; Run 1, Run 2
EPHA1 = EPHA1 (Homo sapiens, UniProt P21709); assay: biochemical; details: read-out: % enzyme activity, 1 μM; Run 1, Run 2
CSK = CSK (Homo sapiens, UniProt P41240); assay: biochemical; details: read-out: % enzyme activity, 1 μM; Run 1, Run 2
SGK2 = SGK2 (Homo sapiens, UniProt Q9HBY8); assay: biochemical; details: read-out: % enzyme activity, 1 μM; Run 1, Run 2
STK38/NDR1 = STK38/NDR1 (Homo sapiens, UniProt Q15208); details: 1 μM; Run 1, Run 2
MLK1/MAP3K9 = MLK1/MAP3K9 (Homo sapiens, UniProt P80192); details: 1 μM; Run 1, Run 2
MYLK4 = MYLK4 (Homo sapiens, UniProt Q86YV6); details: 1 μM; Run 1, Run 2
FGFR4 = FGFR4 (Homo sapiens, UniProt P22455); assay: biochemical; details: read-out: % enzyme activity, 1 μM; Run 1, Run 2
RIPK2 = RIPK2 (Homo sapiens, UniProt O43353); details: 1 μM; Run 1, Run 2
SGK1 = SGK1 (Homo sapiens, UniProt O00141); assay: biochemical; details: read-out: % enzyme activity, 1 μM; Run 1, Run 2
CAMK2a = CAMK2a (Homo sapiens, UniProt Q9UQM7); details: 1 μM; Run 1, Run 2
CK1epsilon = CK1epsilon (Homo sapiens, UniProt P49674); details: 1 μM; Run 1, Run 2
GRK1 = GRK1 (Homo sapiens, UniProt Q15835); assay: biochemical; details: read-out: % enzyme activity, 1 μM; Run 1, Run 2
NEK9 = NEK9 (Homo sapiens, UniProt Q8TD19); details: 1 μM; Run 1, Run 2

## COc1cc(-c2cncc(-c3ccc(N4CCN(C(C)C)CC4)cc3)c2C)cc(F)c1C(N)=O [Compound 26b, 2-Fluoro-4-(5-(4-(4-isopropylpiperazin-1-yl)phenyl)-4-methylpyridin-3-yl)-6-methoxybenzamide]
RIPK4
  % enzyme activity: 77.02%
TYK2
  remaining activity at 1 µM: 103%
MEK3
  remaining activity at 1 µM: 105%
FGFR1
  % enzyme activity: 101.63%
SNRK
  % enzyme activity: 107.97%
MAK
  % enzyme activity: 110.09%
CDK8/cyclin C
  remaining activity at 1 µM: 90.1%
PKG2/PRKG2
  % enzyme activity: 91.81%
TEC
  remaining activity at 1 µM: 128%
PLK3
  % enzyme activity: 93.88%
LCK2/ICK
  % enzyme activity: 86.13%
CHK1
  % enzyme activity: 105.34%
NEK2
  % enzyme activity: 91.46%
DYRK3
  remaining activity at 1 µM: 93.4%
RSK3
  remaining activity at 1 µM: 101%
MKK7
  remaining activity at 1 µM: 100%
MEKK1
  % enzyme activity: 87.93%
ERN1/IRE1
  remaining activity at 1 µM: 98.3%
PIM3
  % enzyme activity: 106.04%
LIMK2
  % enzyme activity: 102.22%
BTK
  % enzyme activity: 97.62%
PKN2/PRK2
  % enzyme activity: 100.36%
DCAMKL1
  remaining activity at 1 µM: 84.7%
MYO3A
  remaining activity at 1 µM: 99.4%
CDK4/cyclin D1
  remaining activity at 1 µM: 100%
CK1g2
  % enzyme activity: 70.17%
CK2a
  % enzyme activity: 85.73%
FGFR3
  remaining activity at 1 µM: 105%
PKCg
  remaining activity at 1 µM: 98.3%
EPHA2
  remaining activity at 1 µM: 102%
EPHA1
  remaining activity at 1 µM: 98%
CSK
  remaining activity at 1 µM: 94.1%
SGK2
  remaining activity at 1 µM: 95.8%
STK38/NDR1
  % enzyme activity: 88.77%
MLK1/MAP3K9
  % enzyme activity: 102.91%
MYLK4
  % enzyme activity: 95.46%
FGFR4
  remaining activity at 1 µM: 95.2%
RIPK2
  % enzyme activity: 79.92%
SGK1
  remaining activity at 1 µM: 91.1%
CAMK2a
  % enzyme activity: 89.17%
CK1epsilon
  % enzyme activity: 91.70%
GRK1
  remaining activity at 1 µM: 95.4%
NEK9
  % enzyme activity: 87.78%
